# Out of some 140,000 compounds screened, about 4,300 (3.1%) were called active. Inconclusive means that the source gave no clear call. Such entries were picked first, then a sample of the others.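 How the source made its calls: active means readout at or below -70, meaning at least 70% loss of cells showing the perinucleolar compartment, a nuclear body marking cancer cells; inconclusive means readout between -30 and a set limit; inactive means the rest.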
# Experiment: High Content Assay for Compounds that inhibit the Assembly of the Perinucleolar Compartment;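 further: plate controls were DMSO wells for no effect and camptothecin positive control wells for full effect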
# Conditions: PC3M PTB-GFP, PNC prevalence imaging, 16 h; at 10 µM; active compounds read low
# How it was run: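 PC3M cells stably expressing PTB-GFP, 750–1000 cells/well, treated 16 h at 37 °C with compound (23 nl of library stock), in duplicate. After paraformaldehyde fixation and Hoechst stain, imaged at 20x; PNC prevalence scored by image analysis.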
row,SMILES,"activity change (PNC), negative = inhibition"
1,N/C(=N\OC(=O)c1cccc([N+](=O)[O-])c1)c1cccnc1,inconclusive: -33.3%
2,c1cc2ccc3ccc(-n4cnnn4)c4ccc(c1)c2c34,inconclusive: -60%
3,CCOc1ccc(NC(=S)NN(C)C(=S)Nc2ccc(OCC)cc2)cc1,inactive: 2.76%
4,Cc1nn(C(C)c2n[nH]c(=S)n2-c2cccc(Cl)c2)c(C)c1[N+](=O)[O-] (stereo unspecified),inactive: 85.6%
5,Cc1c(C(=O)OCc2ccccc2)[nH]c2c1C(=O)CC(c1ccco1)C2 (stereo unspecified),active: -82%
6,O=C(NCc1nc2ccccc2[nH]1)c1cccs1,active: -86.8%
7,O=C(Cn1cnc2c(nnn2Cc2ccccc2F)c1=O)NCC1CCCO1 (stereo unspecified),inconclusive: -32.2%
8,CCc1nnc(NC(=O)CSc2nnc(COc3ccccc3)n2Cc2ccccc2)s1,inactive: 19.2%
9,CCOC(=O)C1CCCN(c2c(N3CCN(c4ccccn4)CC3)c(=O)c2=O)C1 (stereo unspecified),inconclusive: -72.3%
10,O=C(OCC(=O)c1c[nH]c2ccccc12)c1ccc(Br)o1,inconclusive: -38.3%
11,COC(=O)c1[nH]c2ccc(C)cc2c1NC(=O)CN1CCN(Cc2ccccc2)CC1,inconclusive: -42.8%
12,CCOC(=O)c1cccnc1NC(=O)c1ccncc1,inactive: -1.7%
13,COc1cccc(C(=O)OC(C)CN2CCCC2)c1 (stereo unspecified),inconclusive: -72.4%
14,CCNC(=S)NS(=O)(=O)c1ccc(C)cc1,active: -84.9%
15,CC(C)C(=O)Nc1cccc2nsnc12,inconclusive: -46.1%
16,COc1ccc(-c2cc(C(=O)NCc3ccco3)no2)cc1OC,inactive: -7.14%
17,COc1ccc(/C=N/NC(=O)c2ccc(CN3c4cccc5cccc(c45)S3(=O)=O)cc2)cc1,inconclusive: -39%
18,Cc1ccccc1OCCCC(=O)Nc1ccc(Br)cc1,inconclusive: -69.4%
19,Cc1cc(C)n2ncc(C(=O)NCc3ccccc3)c2n1,inconclusive: -71.7%
20,Cc1ccc(OCC(=O)NNC(=O)C(C)Sc2ncnc3sc(C)c(C)c23)cc1 (stereo unspecified),inconclusive: -32%
21,CS(=O)(=O)N(CC(=O)Nc1ccc2c(c1)OCCO2)Cc1ccccc1,inconclusive: -56.1%
22,COc1cccc(CN(C(=O)Cc2c[nH]c3ccccc23)C(C(=O)NC2CCCCC2)c2ccc(C)o2)c1 (stereo unspecified),inactive: -3.41%
23,CC1CC(C)CN(Cc2nc3c(c(=O)n(C)c(=O)n3C)n2CCN2CCOCC2)C1 (stereo unspecified),inactive: 31.9%

row,SMILES,"activity change (PNC), negative = inhibition"
1,Cc1ccccc1NC(=O)C1Cc2ccccc2C(=O)O1 (stereo unspecified),inconclusive: -35.5%
2,O=C(NC(=O)N1CCN(c2ccc(F)cc2)CC1)c1ccccc1,inconclusive: -38.8%
3,COc1cc(OC)cc(C(=O)NNC(=O)c2ccccn2)c1,inconclusive: -50.9%
4,O=C(NCCCO)C(=O)NCCc1ccc(Cl)cc1,inactive: -8.95%
5,Oc1cccc(/C=N/NC(=S)Nc2cccnc2)c1O,inconclusive: -32.5%
6,O=C(CNC(=O)/C=C/c1ccccc1)N=Nc1c(O)n(Cc2ccccc2)c2ccccc12,inactive: -8.1%
7,Cc1ccc(N(CC(N)=O)C2SC(=O)NC2=O)cc1 (stereo unspecified),inconclusive: -34.4%
8,O=C(NCCSCc1ccccc1)c1ccccc1,inconclusive: -39%
9,O=S(=O)(c1ccc(Cl)c(Cl)c1)N1CCc2nc3ccccc3n2CC1,inconclusive: -54.9%
10,Cc1ccc(C(=O)Nc2ccc3c(c2)OCO3)cc1,inactive: -19.6%
11,O=C(CSc1nnnn1-c1ccccc1)N1CCc2ccccc21,inconclusive: -46.8%
12,CCn1c(SCC(=O)NC2CCCCC2)nnc1-c1cc2cccc(OC)c2o1,inactive: -20.4%
13,Cc1ccc([N+](=O)[O-])cc1S(=O)(=O)NCCc1c(C)[nH]c2ccccc12,inactive: -27.7%
14,O=C(CSc1nc(-c2ccccc2)cs1)NCc1ccco1,inconclusive: -50.1%
15,Cn1ccnc1SCC(=O)Nc1cccc(C(F)(F)F)c1,inconclusive: -45.7%
16,COC(=O)Nc1sc2c(c1C(=O)N1CCOCC1)CCC(C)C2 (stereo unspecified),inconclusive: -38.2%
17,CC(C)Sc1nc2c(c(=O)[nH]c(=O)n2C)n1CCc1ccccc1,inconclusive: -44.3%
18,Cn1c(=O)c2c(nc(N3CCCCCC3)n2Cc2cccc3ccccc23)n(C)c1=O,inactive: 18.2%
19,Cn1c(=O)c2c(ncn2CC(=O)N/N=C/C=C/c2ccccc2)n(C)c1=O,inconclusive: -76.5%
20,Cc1cc(N)ccc1NC(=O)c1ccccc1,inconclusive: -38.6%
21,O=C(CSc1nnc(NC(=O)c2ccc(S(=O)(=O)N3CCOCC3)cc2)s1)Nc1ccccc1C(F)(F)F,inactive: 43.1%
22,CCOc1ccc(NCCC(=O)c2ccc3c(c2)OCO3)cc1,inactive: 23%
23,CC(C)(C)NC(=O)Nc1ccc2nccnc2c1,inconclusive: -54.8%

row,SMILES,"activity change (PNC), negative = inhibition"
1,O=C(O)C1CCCN1S(=O)(=O)c1ccc(Cl)c(Cl)c1 (stereo unspecified),inconclusive: -69.1%
2,COC(=O)C1=C(N)Oc2c(oc(CO)cc2=O)C1c1ccccc1F (stereo unspecified),inconclusive: -44.2%
3,O=C(CN1CCc2ccccc21)NC(c1ccccc1)c1ccccc1,inconclusive: -63.2%
4,O=C(CSc1nnnn1Cc1ccccc1)Nc1ccc2c(c1)OCCO2,inactive: -9.81%
5,O=C(Cc1ccccc1)NN1C(=O)C2C3C=CC(C4CC34)C2C1=O (stereo unspecified),inconclusive: -32.7%
6,CNCc1ccccc1OCC(=O)Nc1ccccc1,inconclusive: -72.5%
7,CCOc1ccc(NC(=O)Cc2ccccc2)c([N+](=O)[O-])c1,inconclusive: -31.8%
8,Cc1cc(-c2csc(N)n2)c(C)n1CCC(C)C,inconclusive: -35.9%
9,CCOc1ccc(NC(=O)CS(=O)(=O)c2cn(C)c3ccccc23)cc1,inconclusive: -32.6%
10,CC(C(=O)O)c1ccc(N2Cc3ccccc3C2=O)cc1 (stereo unspecified),inactive: -4.44%
11,CCCNC(=O)COC(=O)c1ccccc1OCC(=O)Nc1ccc(Br)cc1,inconclusive: -60.8%
12,O=S(=O)(Nc1ccc2c(c1)nc1n2CCN(Cc2ccccc2)C1)c1ccccc1,inconclusive: -50.5%
13,CC(=O)Oc1c(S(=O)(=O)c2ccccc2)c(C)nn1C(C)(C)C,inconclusive: -49.9%
14,O=C(NCCC1=CCCCC1)C(=O)NCC(c1ccco1)N1CCN(c2ccccc2F)CC1 (stereo unspecified),inconclusive: -45.3%
15,O=C(Cc1cccs1)Nc1ccc(S(=O)(=O)Nc2ncccn2)cc1,inconclusive: -58.3%
16,CCCOc1ccc([C@@H]2C3CN(C(=O)OCC)CC=C3C(C#N)=C(N)C2(C#N)C#N)cc1OC (stereo partly specified),active: -81.2%
17,Cc1noc(C)c1C(=O)N(CC(=O)NC1CCCC1)Cc1ccccc1F,inconclusive: -38.9%
18,Cn1c(-c2ccc(Cl)cc2)ccc(C#N)c1=O,inconclusive: -49.3%
19,CC(C)(C)NC(=O)c1cccc(NC(=O)c2ccc(NC(=O)c3ccco3)cc2)c1,inconclusive: -56.9%
20,Cn1c(SCc2cccc(Cl)c2)nc(C(F)(F)F)cc1=O,inconclusive: -35%
21,S=C(Nc1ccc(Cl)cc1Cl)Nn1cnnc1,inconclusive: -58.6%
22,C(=N\N(c1ccccc1)c1ccccc1)/c1ccc2c(c1)OCO2,inactive: -25.9%
23,O=C(c1ccc(CSc2nc3ccncc3[nH]2)cc1)N1CCN(c2cccc(Cl)c2)CC1,inactive: 1.59%

row,SMILES,"activity change (PNC), negative = inhibition"
1,COc1ccc(NC(=O)C(NC(=O)CC2NC(=O)NC2=O)c2ccccc2)cc1 (stereo unspecified),active: -115%
2,c1ccc(-c2noc(CSc3nnnn3-c3ccccc3)n2)cc1,inactive: -5.08%
3,CN(C)C1NC(=O)c2cc(-c3ccccc3)sc2N1 (stereo unspecified),inconclusive: -34.4%
4,CCn1cc([N+](=O)[O-])c(C(=O)N2CCN(C(=O)c3ccco3)CC2)n1,inconclusive: -41.2%
5,CC(CNC(=O)COc1ccccc1)OC(=O)Nc1ccc(Cl)c(Cl)c1 (stereo unspecified),inconclusive: -42.2%
6,COc1ccc(OC)c(NC(=O)NC2(C(F)(F)F)Oc3ccccc3O2)c1,inactive: 32%
7,O=C(CSc1ncc(-c2ccccc2)nn1)NCc1ccco1,inactive: 28%
8,CNS(=O)(=O)c1cccc(C(=O)OCC(=O)c2cc(C)n(-c3ccc4c(c3)OCO4)c2C)c1,inactive: 19.7%
9,Cc1c(NC(=O)/C(C#N)=C/c2ccc(-c3ccccc3Cl)o2)c(=O)n(-c2ccccc2)n1C,inactive: -1.08%
10,O=C(Oc1ccc(N(Cc2cccs2)C2=NS(=O)(=O)c3ccccc32)cc1)c1ccccc1F,inconclusive: -31.1%
11,CN(C)C/C(Cl)=C(\Cl)c1ccccc1,inconclusive: -73.9%
12,Cc1ccccc1N=Cc1cccc(O)c1O,inconclusive: -32%
13,O=C(O)CN1C(=O)C2C3C=CC(C3)C2C1=O (stereo unspecified),inconclusive: -74.4%
14,Cc1ccc(C2c3sc(=O)[nH]c3SC3C(=O)NC(=O)C32)cc1 (stereo unspecified),inactive: -29.4%
15,COc1ccc(NC2CC(=O)N(CCc3ccccc3)C2=O)cc1 (stereo unspecified),inactive: -28.2%
16,O=c1[nH]c2cc(Cl)ccc2n(CCNc2ncc(C(F)(F)F)cc2Cl)c1=O,inactive: 32.6%
17,COc1ccc(NC(=O)c2nn(C34CC5CC(CC(C5)C3)C4)cc2[N+](=O)[O-])cc1,inactive: 60.7%
18,CCN(CC)CCNc1ncnc2c1[nH]c1ccc(OC)cc12,inconclusive: -44.1%
19,CCc1nnc(NC(=O)C(=O)NCCOC(=O)c2ccccc2Cl)s1,active: -109%
20,C/C(CC(=O)Nc1ccccc1Br)=N\NC(=O)C(=O)N1CCCC1,inconclusive: -73.3%
21,COc1ccc2c(Cl)c(C(N)=O)sc2c1,inactive: 22.7%
22,COCC(C)n1c(C)cc(C(=O)CSc2nnc(N)s2)c1C (stereo unspecified),inconclusive: -47.4%

# Random excerpt: three records from the list.
row,SMILES,"activity change (PNC), negative = inhibition"
6,COc1ccc(OC)c(NC(=O)NC2(C(F)(F)F)Oc3ccccc3O2)c1,inactive: 32%
11,CN(C)C/C(Cl)=C(\Cl)c1ccccc1,inconclusive: -73.9%
4,CCn1cc([N+](=O)[O-])c(C(=O)N2CCN(C(=O)c3ccco3)CC2)n1,inconclusive: -41.2%

# — PubChem BioAssay AID2417 (National Center for Advancing Translational Sciences (NCATS), 2010)
